Measurements reported in PMC11371216.
The exact form of at least one protein or probe is not confirmed. For some of these results: Negatives hold for the conditions tested. For some of these results: At least one verdict was read from the data and is not stated in words by the source.

The chains behind the UniProt entries cited, without tags or fusion partners. Where a name states a change or a piece, a line headed by the entry shows the natural chain unless it says otherwise.
UniProt P26358: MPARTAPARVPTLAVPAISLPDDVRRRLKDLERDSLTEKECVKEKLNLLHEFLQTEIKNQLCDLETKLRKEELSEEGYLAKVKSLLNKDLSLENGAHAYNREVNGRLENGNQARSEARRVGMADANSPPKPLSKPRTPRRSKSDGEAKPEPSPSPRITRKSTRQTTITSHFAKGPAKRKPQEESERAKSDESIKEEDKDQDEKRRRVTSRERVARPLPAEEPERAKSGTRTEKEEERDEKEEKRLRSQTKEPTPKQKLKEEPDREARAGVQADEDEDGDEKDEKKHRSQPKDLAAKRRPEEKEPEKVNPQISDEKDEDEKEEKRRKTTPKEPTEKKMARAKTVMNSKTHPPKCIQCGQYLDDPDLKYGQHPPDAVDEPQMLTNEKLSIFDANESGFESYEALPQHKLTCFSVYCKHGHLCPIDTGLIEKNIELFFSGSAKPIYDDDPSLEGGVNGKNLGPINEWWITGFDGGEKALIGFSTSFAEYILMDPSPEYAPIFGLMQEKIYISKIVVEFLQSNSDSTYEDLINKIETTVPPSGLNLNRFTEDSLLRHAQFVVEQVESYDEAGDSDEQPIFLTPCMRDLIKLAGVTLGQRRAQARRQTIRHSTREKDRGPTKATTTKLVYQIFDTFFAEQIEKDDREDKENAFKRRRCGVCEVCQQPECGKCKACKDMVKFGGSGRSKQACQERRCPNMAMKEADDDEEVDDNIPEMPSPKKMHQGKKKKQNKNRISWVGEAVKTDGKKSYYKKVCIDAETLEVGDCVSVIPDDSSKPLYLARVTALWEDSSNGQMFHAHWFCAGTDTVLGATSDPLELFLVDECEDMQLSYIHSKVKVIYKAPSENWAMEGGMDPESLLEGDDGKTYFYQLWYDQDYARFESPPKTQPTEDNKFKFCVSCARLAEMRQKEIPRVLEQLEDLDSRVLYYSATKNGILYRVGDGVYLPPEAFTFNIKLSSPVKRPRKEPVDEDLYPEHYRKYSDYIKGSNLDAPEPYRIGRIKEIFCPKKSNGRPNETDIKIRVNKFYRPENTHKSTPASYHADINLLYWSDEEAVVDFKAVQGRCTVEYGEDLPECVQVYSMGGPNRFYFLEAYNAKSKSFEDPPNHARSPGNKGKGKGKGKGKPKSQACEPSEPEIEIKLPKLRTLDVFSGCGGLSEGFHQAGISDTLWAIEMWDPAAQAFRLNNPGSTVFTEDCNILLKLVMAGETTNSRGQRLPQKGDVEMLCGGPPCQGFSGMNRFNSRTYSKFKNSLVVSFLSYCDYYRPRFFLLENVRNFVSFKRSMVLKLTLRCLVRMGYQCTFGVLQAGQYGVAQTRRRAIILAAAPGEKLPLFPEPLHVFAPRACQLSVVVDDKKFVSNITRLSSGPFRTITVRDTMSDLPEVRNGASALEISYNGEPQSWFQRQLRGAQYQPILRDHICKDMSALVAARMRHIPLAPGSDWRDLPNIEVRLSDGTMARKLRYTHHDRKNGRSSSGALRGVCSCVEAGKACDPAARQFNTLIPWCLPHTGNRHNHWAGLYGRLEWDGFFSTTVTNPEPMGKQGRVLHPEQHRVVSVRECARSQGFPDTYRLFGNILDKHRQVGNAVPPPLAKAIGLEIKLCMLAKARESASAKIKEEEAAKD

Tests used:
[1] = system: DNMT1 + H3Ub2-peptide (H3-K18Ub/K23Ub analogue) H3:K18C,K23C, ubiquitin:G76C; experiment: covalent complex on SDS-PAGE; conditions: SAM 150-fold excess, 2 mM Mg2+, no inhibitor; 5-methyl-dC at position 13 of strand 1; 5-fluoro-dC at position 13 of strand 2; covalent assay: 25 mM Tris-HCl pH 7.5, 20 mM KCl, 20% glycerol, 2 mM MgCl2, 37 C, 1 h; recombinant protein; protein details: N-terminal Flag-6xHis-TEV site
[2] = biological target: DNMT1 (human) (UniProt P26358); experiment: covalent complex on SDS-PAGE; conditions: no H3Ub2-peptide, no covalent complex (non-covalent binding not tested); 5-methyl-dC at position 13 of strand 1; 5-fluoro-dC at position 13 of strand 2; covalent assay: 25 mM Tris-HCl pH 7.5, 20 mM KCl, 20% glycerol, 2 mM MgCl2, 37 C, 1 h; recombinant protein; protein details: N-terminal Flag-6xHis-TEV site
[3] = system: DNMT1 + H3Ub2-peptide (H3-K18Ub/K23Ub analogue) H3:K18C,K23C, ubiquitin:G76C; experiment: cryo-EM; conditions: productive covalent complex; 5-methyl-dC at position 13 of strand 1; 5-fluoro-dC at position 13 of strand 2; covalent assay: 25 mM Tris-HCl pH 7.5, 20 mM KCl, 20% glycerol, 2 mM MgCl2, 37 C, 1 h; recombinant protein; protein details: N-terminal Flag-6xHis-TEV site
[4] = biological target: DNMT1 (human) (UniProt P26358); experiment: EMSA; conditions: SAM 20-fold excess, no inhibitor; 5-methyl-dC at position 13 of strand 1; EMSA: 25 mM Tris-HCl pH 7.5, 40 mM NaCl, 20% glycerol, 1 mM DTT, 0.5 mM MgCl2, overnight at room temperature; recombinant protein; protein details: N-terminal Flag-6xHis-TEV site

Sequence	binding result [1]	binding result [2]	binding result [3]	binding result [4]
TGGAGTCGAGGCCGCCTGCGCAGGAC (double strand) [26 bp 5FDNA (hemi-methylated, 5-fC target strand)]	binds	no binding	binds	
TGGAGTCGAGGCCGCCTGCGCAGGAC (double strand) [26 bp hemi-methylated DNA]				binds
